# From US20090035322A1
# Sequences of proteins named here, by UniProt entry; tags and fusion partners are left off. A change or cut given only in a name is not applied to a line headed by its entry.
# UniProt P11836: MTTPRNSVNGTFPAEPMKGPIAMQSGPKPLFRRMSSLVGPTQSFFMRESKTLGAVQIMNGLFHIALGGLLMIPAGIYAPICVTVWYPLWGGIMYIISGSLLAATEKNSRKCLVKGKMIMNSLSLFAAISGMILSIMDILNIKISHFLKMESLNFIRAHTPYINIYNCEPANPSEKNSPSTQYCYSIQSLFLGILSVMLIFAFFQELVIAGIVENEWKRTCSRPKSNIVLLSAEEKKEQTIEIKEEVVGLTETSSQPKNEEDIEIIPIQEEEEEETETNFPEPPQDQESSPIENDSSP
# Changes are numbered by the printed parent chain. These are yes or no findings as the source states them, for the method shown. Some results given as binding are weak or reduced against the parent protein; the word gives no strength.
# B1: 3H7-6 (antibody, V domains shown)
# VH: EVQLVESGGGLVQPGRSLRLSCAASGFTFYDYAMHWVRQAPGKGLEWVSGISWNSGYIGYADSVKGRFTISRDNAKNSLYLQMNSLRAEDTALYYCAKDNSYGKFYYGLDVWGQGTTVTVSS
# VL: EIVMTQSPATLSVSPGERTTLSCRASQSVSSNLAWYLQKPGQAPRLLIYGASTRATGIPARFSGSGSGTEFILTISSLQSEDFAVYYCQQYNNWPITFGQGTRLEIK
# B2: 6B9-4 (antibody, V domains shown)
# VH: EEQLVESGGDLVQPGRSLRLSCAASGFTFHDYTMHWVRQAPGKGLEWVSGISWNSGSIGYADSVKGRFTISRDNAKNSLYLQMNSLRIEDTALYYCAKDPSYGSGSYYYYYGMDVWGQGTTVTVSS
# VL: EIVLTQSPATLSLSPGERATLSCRASQSVSSYLVWYQQRPGQAPRLLIYEASNRATGIPARFSGSGSGTDFTLTISSLESEDFAVYYCQQRSNWPLTFGGGTKVEIK
# B3: 9C11-14 (antibody, V domains shown)
# VH: QVQLVESGGDSVKPGGSLRLSCAASGFTFSDSYMTWIRQAPGKGLEWVSFISSSGSTIYYADSVKGRFTISRDNVKKSLYLQMNRLRAEDTAVYYCAREEPGNYVYYGMDVWGQGTTVTVSS
# VL: EIVVTQSPATLSLSPGERATLSCRTSQTTTSYLAWYRQKPGQAPRLLIYDASNRAAGIPARFSGSGSGTDFTLTINSLEPEDFAVYYCQLRTNWITFGQGTRLEIK
# B4: 2C11-4 (antibody, V domains shown)
# VH: EVQLVESGGGLVQPGRSLRLSCAASGFTFRDYAMHWVRQGPGKGLEWVSGISWNTDYIGYADSVKGRFTISRDNAKNSLYLQMNSLRPEDTALYYCAKDARYGRDNYYGMDVWGQGTTVTVSS
# VL: EIVLTQSPATLSLSPGERATLSCRASQSVSRYLAWYQQKPGQAPRLLIHDASNRATGIPARFSGSGSGTDFTLTITSLEPEDFVVYYCQQRSDWPITFGQGTRLEIK
# B5: 9H4-12 (antibody, V domains shown)
# VH: EVQLVESGGGLVQPGRSLRLSCAASGFTFDDYAMHWVRQVPGKGLEWVSGISWNSGSIGYADSVKGRFTISRDNAKNSLYLQMNSLRAEDTALYYCAKDMGYGNYYHYGMDVWGQGTTVTVSS
# VL: B4 VL with E1D, R31S, H49C, N53H, G57R, T76S, V84A, D93N
# B6: 10E3-17 (antibody, V domains shown)
# VH: EVQLVESGGGLVQPGRSLRLSCAASGFTFRDYAMHWVRQVPGKGLEWVSGISWNRGTIGYADSVKGRFTISRDNAKNSLFLQMNSLRADDTALYYCAKDHYYGSGSPYGMDVWGQGTTVTVSS
# VL: EIVLTQSPATLALSPGERATLSCRASQSVSKYLAWYQQKPGQAPRLLIYDASKRVTGIPGRLSGSGSGTDFTLTISSLEPEDFALYYCQQSSNWPITFGQGTRVEIK
# Target: human CD20 (human) (UniProt P11836)
# Experiment: flow cytometry, hCD20-transfected MG87 cells
row,binding,Binder
1,binds,B1
2,binds,B2
3,binds,B3
4,binds,B4
5,binds,B5
6,binds,B6
